Assay results reported in PMC4631838, “Molecular architecture of the yeast Mediator complex” (eLife, 2015).
No constants are given. Whether binding was seen depends on the method and setting. In cells and extracts the contact can be indirect. These calls come from enrichment with a bait or labelling near it, and not all partners need be listed. Values belong to the molecule of their own block, whether it stands above or below them.

Protein sequences, listed by entry. Tags and fused reporters are not part of them.
UniProt P32569: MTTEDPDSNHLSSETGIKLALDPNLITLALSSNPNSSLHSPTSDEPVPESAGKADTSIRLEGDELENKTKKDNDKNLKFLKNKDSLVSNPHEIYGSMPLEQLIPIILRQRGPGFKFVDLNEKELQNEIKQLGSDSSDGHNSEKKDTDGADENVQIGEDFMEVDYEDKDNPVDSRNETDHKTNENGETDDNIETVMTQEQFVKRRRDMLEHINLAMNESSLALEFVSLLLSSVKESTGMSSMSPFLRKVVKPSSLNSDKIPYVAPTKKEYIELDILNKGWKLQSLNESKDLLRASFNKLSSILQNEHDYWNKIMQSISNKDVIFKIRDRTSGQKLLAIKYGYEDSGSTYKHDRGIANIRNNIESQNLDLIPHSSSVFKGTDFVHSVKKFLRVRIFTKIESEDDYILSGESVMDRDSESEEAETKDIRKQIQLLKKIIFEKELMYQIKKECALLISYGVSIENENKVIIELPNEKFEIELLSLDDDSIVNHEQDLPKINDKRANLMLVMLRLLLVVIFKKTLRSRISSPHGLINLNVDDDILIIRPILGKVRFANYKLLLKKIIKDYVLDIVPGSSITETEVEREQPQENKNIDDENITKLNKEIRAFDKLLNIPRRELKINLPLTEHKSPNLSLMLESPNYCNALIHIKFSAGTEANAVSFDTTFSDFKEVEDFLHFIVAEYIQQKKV
UniProt P38633: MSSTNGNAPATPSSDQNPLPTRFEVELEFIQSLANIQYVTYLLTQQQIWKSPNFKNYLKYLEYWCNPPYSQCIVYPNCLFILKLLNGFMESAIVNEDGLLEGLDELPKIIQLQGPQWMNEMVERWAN

Target: Med17 (Srb4), Mediator Head module subunit (S. cerevisiae) (UniProt P32569)
Assay: affinity purification with mass spectrometry; native holoenzyme from S. cerevisiae whole-cell extract; capture on an IgG column by TAP on Med17 and protein G on Rpb1, wash in A500 buffer, stepwise TEV and 3C cleavage, ion exchange (HiTrap FFQ), Superose 6; subunits shown by SDS PAGE and mass spectrometry

- binding: binds
Molecule: Med31 (Soh1), Mediator Middle module subunit (from UniProt P38633 1-127)

- binding: binds
B1: Med6, Mediator Head module subunit (protein, UniProt P38782 1-295)
chain: MNVTPLDELQWKSPEWIQVFGLRTENVLDYFAESPFFDKTSNNQVIKMQRQFSQLNDPNAAVNMTQNIMTLPDGKNGNLEEEFAYVDPARRQILFKYPMYMQLEEELMKLDGTEYVLSSVREPDFWVIRKQRRTNNSGVGSAKGPEIIPLQDYYIIGANIYQSPTIFKIVQSRLMSTSYHLNSTLESLYDLIEFQPSQGVHYKVPTDTSTTATAATNGNNAGGGSNKSSVRPTGGANMATVPSTTNVNMTVNTMGTGGQTIDNGTGRTGNGNMGITTEMLDKLMVTSIRSTPNYI
